According to US20260256765A1, “METHOD OF TREATING DISEASE USING COMPOUND, AND USE OF COMPOUND” (TENNOR THERAPEUTICS (SUZHOU) LIMITED, priority 2023, published 2026):
Some entries share one result that the patent states for a list of compounds.

Test system: Staphylococcus aureus (18 strains)
Experiment: MBBC against biofilms of clinical DFI isolates, Staphylococcus aureus
Format: cell-based
Experimental: Preparation of test strains: In this example, foot specimens were collected from 49 patients with type II diabetes. Isolates were obtained from the specimens described above through homogenization, plating, and culture at 37° C., and after the removal of fungi and strains with poor growth or strains that could not be isolated and purified, a total of 69 clinical strains were obtained. Among these, 55 strains were Gram-positive bacteria and 14 strains were Gram-negative bacteria. Of the Gram-positive bacteria, 43 strains were staphylococci, including 18 Staphylococcus aureus strains, 8 Staphylococcus epidermidis strains, and 5 Staphylococcus lugdunensis strains. One ATCC standard strain was additionally used as a standard and quality control strain. […]
Determination of antibacterial activity: The minimum inhibitory concentration (MIC) and the minimum biofilm bactericidal concentration (MBBC) for in vitro biofilms of the compound of formula (I) and control drugs (see details in 2) against 69 clinically isolated diabetic foot infection clinical strains were evaluated using the standard broth dilution method and the in vitro biofilm culture and drug susceptibility methods reported in the literature.

SMILES: CN[C@H](CC(C)C)C(=O)N[C@H]1C(=O)N[C@@H](CC(N)=O)C(=O)N[C@H]2C(=O)N[C@H]3C(=O)N[C@H](C(=O)N[C@H](C(=O)O)c4cc(O)cc(O)c4-c4cc3ccc4O)[C@H](O)c3ccc(c(Cl)c3)Oc3cc2cc(c3O[C@@H]2O[C@H](CO)[C@@H](O)[C@H](O)[C@H]2O[C@H]2C[C@](C)(N)[C@H](O)[C@H](C)O2)Oc2ccc(cc2Cl)[C@H]1O [Vancomycin]
- MBBC90: > 128 g/mL
